From article PMC5008269
These are yes or no findings as the source states them, for the method shown. Binding seen in cells or lysates may run through a third protein. Some entries that bind do so weakly or less than the wild type.

Chains of the proteins cited; added tags and fusions are not shown.
UniProt Q8N122: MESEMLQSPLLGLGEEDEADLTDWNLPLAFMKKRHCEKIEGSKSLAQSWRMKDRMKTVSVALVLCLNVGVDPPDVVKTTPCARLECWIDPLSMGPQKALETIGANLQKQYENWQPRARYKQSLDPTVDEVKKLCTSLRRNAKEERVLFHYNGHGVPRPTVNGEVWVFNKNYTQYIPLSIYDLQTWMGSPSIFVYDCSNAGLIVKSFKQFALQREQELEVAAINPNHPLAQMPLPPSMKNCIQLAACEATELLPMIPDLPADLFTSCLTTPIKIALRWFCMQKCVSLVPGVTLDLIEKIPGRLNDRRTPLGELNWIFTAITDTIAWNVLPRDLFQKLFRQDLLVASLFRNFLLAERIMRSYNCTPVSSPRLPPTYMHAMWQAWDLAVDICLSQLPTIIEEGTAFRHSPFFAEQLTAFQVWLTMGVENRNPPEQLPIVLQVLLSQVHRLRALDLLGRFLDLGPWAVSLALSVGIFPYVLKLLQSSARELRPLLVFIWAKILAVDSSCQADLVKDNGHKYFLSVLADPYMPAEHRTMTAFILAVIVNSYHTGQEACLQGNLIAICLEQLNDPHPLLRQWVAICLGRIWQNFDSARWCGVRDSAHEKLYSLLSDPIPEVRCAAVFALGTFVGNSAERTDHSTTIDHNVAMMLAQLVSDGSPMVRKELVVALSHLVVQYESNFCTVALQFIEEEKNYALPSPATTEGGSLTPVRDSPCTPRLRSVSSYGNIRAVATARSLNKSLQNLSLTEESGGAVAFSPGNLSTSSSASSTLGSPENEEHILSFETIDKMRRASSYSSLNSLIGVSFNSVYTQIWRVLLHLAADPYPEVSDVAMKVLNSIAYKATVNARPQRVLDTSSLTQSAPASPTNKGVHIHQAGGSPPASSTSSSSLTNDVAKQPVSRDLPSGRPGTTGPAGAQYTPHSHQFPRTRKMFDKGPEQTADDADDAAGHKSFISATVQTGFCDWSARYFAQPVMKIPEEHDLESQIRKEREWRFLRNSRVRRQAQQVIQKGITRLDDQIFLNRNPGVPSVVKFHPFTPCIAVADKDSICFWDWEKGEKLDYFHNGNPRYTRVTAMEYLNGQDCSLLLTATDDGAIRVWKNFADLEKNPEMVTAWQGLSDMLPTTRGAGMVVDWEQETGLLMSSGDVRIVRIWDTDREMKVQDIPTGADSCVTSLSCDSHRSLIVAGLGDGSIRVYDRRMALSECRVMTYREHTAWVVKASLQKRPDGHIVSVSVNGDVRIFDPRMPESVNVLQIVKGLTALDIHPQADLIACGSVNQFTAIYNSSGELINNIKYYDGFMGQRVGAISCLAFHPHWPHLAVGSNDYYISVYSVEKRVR

Legend:
[1] = biological target: T1, IKKα (human (endogenous in PC3)) (UniProt O15111); assay: co-IP; PC3 extract separated on a Superose 6 10/300 GL column; IKKα immunoprecipitated from fractions 13-15, immunoblot
T1 sequence: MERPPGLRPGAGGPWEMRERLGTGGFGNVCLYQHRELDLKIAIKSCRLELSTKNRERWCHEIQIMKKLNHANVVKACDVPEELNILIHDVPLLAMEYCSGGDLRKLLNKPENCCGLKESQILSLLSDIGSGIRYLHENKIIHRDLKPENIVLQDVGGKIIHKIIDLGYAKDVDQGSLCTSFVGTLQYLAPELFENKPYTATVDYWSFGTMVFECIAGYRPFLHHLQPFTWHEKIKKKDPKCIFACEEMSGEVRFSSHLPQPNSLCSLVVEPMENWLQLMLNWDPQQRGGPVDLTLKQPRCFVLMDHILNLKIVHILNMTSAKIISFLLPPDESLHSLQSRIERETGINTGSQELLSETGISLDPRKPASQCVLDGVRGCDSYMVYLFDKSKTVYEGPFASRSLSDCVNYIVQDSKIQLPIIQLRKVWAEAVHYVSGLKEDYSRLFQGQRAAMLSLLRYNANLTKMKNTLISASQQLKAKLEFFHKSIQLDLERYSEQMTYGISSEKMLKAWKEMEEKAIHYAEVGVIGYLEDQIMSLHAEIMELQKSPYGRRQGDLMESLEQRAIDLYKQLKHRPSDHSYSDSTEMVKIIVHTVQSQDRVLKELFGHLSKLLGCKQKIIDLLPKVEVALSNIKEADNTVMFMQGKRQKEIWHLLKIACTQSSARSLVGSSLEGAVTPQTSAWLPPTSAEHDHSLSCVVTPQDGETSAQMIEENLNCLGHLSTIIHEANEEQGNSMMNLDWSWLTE

[2] = biological target: T1, IKKα (human (endogenous in PC3)); assay: co-IP; endogenous proteins in PC3 lysate, lysis buffer with 0.3% CHAPS; antibody to IKKα, mTOR or Rictor, protein G agarose, immunoblot; mouse or rabbit IgG as negative control; also after LY294002 for one hour (IKKα-Rictor decreased dose-dependently) and after siRNA to IKKα (Rictor-mTOR association unchanged)

binding [1]: binds
binding [2]: binds
Substance: Raptor (from UniProt Q8N122 1-1335) (other; other documents disagree on this pair)
